PubChem BioAssay AID1259254 – NCATS, 2017
Test: 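Gene knock-downs that lead to re-replication, shown by excess G2 DNA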 (primary screen). System: human HCT116 colorectal cancer cells. Reagent: single siRNA against human genes. Duration: 3 days. Measurement: 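Nuclei stained with Hoechst and imaged; cell-cycle phase assigned by DNA content; G2 share scaled per plate, non-targeting siRNA 0%, GMNN siRNA 100%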. Scale: G2 robust z-score and G2 cells, % of GMNN control: higher = more G2 cells, more excess DNA replication; raw share of cells in G2: higher = larger share of cells with G2 DNA content. Hit rule: 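Active siRNAs have a G2 robust z of 5 or more median absolute deviations over the median, which in these data means about 38% or higher of GMNN control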.
In all, the deposit lists about 59,000 reagents; below is a random part of them. About 1,550 of all reagents (2.6%) were called active. 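G2 share is only a proxy for re-replication; each gene was hit by three separate siRNAs, and active genes were retested.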 Raw values are not corrected between plates. A number with no mark means an inactive call. Reagents against one gene are numbered here. The record does not give: the amount of reagent.

Gene	siRNA no.	G2 robust z-score	G2 cells, % of GMNN control	raw share of cells in G2 (%)
SLC30A10	1	0.206	4.41	8.36
SLC30A10	2	-0.111	2.19	5.22
SLC30A10	3	-0.998	-4.06	2.64
PPARGC1A	1	3.58	28.1	12.9
PPARGC1A	2	-1.16	-5.21	3.67
PPARGC1A	3	-0.675	-1.78	2.59
KIF2B	1	-1.24	-5.78	3.02
KIF2B	2	2.88	23.3	12.6
KIF2B	3	-1.22	-5.61	2.71
ACSBG2	1	-1.41	-6.97	1.67
ACSBG2	2	-0.187	1.65	6.12
ACSBG2	3	1.74	15.2	10.4
TTC27	1	0.652	7.55	7.43
TTC27	2	-0.0906	2.33	5.1
TTC27	3	0.536	6.74	5.29
NAPSA	1	0.293	5.03	7.31
NAPSA	2	0.268	4.86	6.63
NAPSA	3	0.201	4.38	5.54
ZNF404	1	-0.217	1.44	3.59
ZNF404	2	0.135	3.92	4.53
ZNF404	3	1.35	12.5	7.9
TDP1	1	-1.57	-8.05	2.9
TDP1	2	-0.312	0.776	4.72
TDP1	3	-0.744	-2.27	3.39
STAP2	1	1.27	11.9	9.11
STAP2	2	-0.316	0.747	4.45
STAP2	3	0.684	7.78	5.62
TRPV2	1	0.834	8.83	8.5
TRPV2	2	-0.879	-3.22	3.69
TRPV2	3	0.565	6.94	7.08
SERINC4	1	0.397	5.76	5.85
SERINC4	2	0.281	4.94	5.29
SERINC4	3	0.596	7.16	5.55
RASGEF1C	1	2.13	17.9	10.1
RASGEF1C	2	-0.0906	2.33	3.93
RASGEF1C	3	0.0714	3.47	4.3
LFNG	1	-0.705	-1.99	4.68
LFNG	2	0.05	3.32	6.64
LFNG	3	-1.36	-6.6	1.02
OR14K1	1	-0.574	-1.07	3.62
OR14K1	2	0.96	9.72	7.51
OR14K1	3	0.657	7.59	7.25
CFAP70	1	0.286	4.98	6.36
CFAP70	2	0.96	9.72	9.14
CFAP70	3	-0.205	1.53	6.38
MRPL11	1	-1.14	-5.09	2.37
MRPL11	2	0.639	7.46	7.95
MRPL11	3	6 (active)	45.2	14.6
ZNF667	1	3.33	26.4	12.1
ZNF667	2	-0.287	0.947	6.34
ZNF667	3	0.674	7.71	6.05
CBLN1	1	3.6	28.3	18.6
CBLN1	2	1.21	11.5	8.28
CBLN1	3	4.99	38.1	18.4
C11orf71	1	3.35	26.5	13.1
C11orf71	2	-0.853	-3.04	2.99
C11orf71	3	-0.268	1.08	3.55
DAZAP2	1	-0.926	-3.55	3.73
DAZAP2	2	0.654	7.57	7.1
DAZAP2	3	0.251	4.73	5.13
STAP1	1	-0.577	-1.09	5.25
STAP1	2	0.709	7.95	8.08
STAP1	3	1.27	11.9	7.49
LRRC1	1	0.175	4.2	6.14
LRRC1	2	0.0796	3.53	5.6
LRRC1	3	1.26	11.8	6.91
SAC3D1	1	0.831	8.82	6.03
SAC3D1	2	-0.72	-2.1	3.05
SAC3D1	3	-0.429	-0.0477	4.53

No new results follow: an excerpt of the list.
Gene	siRNA no.	G2 robust z-score	G2 cells, % of GMNN control	raw share of cells in G2 (%)
OR14K1	3	0.657	7.59	7.25
CFAP70	1	0.286	4.98	6.36
CFAP70	2	0.96	9.72	9.14
CFAP70	3	-0.205	1.53	6.38
